No constants are given. Whether binding was seen depends on the method and setting. In cells and extracts the contact can be indirect. Binding can be weak; no strength is given. Tags and fused reporters may be left off the sequences shown.
Target: embryonic PABP (ePABP) (X. laevis (endogenous in oocytes))
Test: RNA co-immunoprecipitation

B1: MS2-DAZL (murine DAZL fused to the phage MS2 coat protein) (protein, UniProt Q64368 1-298)
chain: MSATTSEAPNSAVSREASTQSSSATTSQGYVLPEGKIMPNTVFVGGIDVRMDETEIRSFFARYGSVKEVKIITDRTGVSKGYGFVSFYNDVDVQKIVESQINFHGKKLKLGPAIRKQNLCTYHVQPRPLIFNPPPPPQFQSVWSSPNAETYMQPPTMMNPITQYVQAYPPYPSSPVQVITGYQLPVYNYQMPPQWPAGEQRSYVIPPAYTTVNYHCSEVDPGADILPNECSVHDAAPASGNGPQKKSVDRSIQTVVSCLFNPENRLRNSLVTQDDYFKDKRVHHFRRSRAVLKSDHLC
binding: binds
